# From the supplement of paper PMC8728848
# This is one part of the list.
# B1: Layilin (Mus musculus), Q8C351 (protein)
# chain: MQPGAALQAMLLAVLLAKPRDSKGRLLSASDLDPRGGQLVCRGGTRRPCYKVIYFHDAFQRLNFEEAKETCMEDGGQLVSIETEDEQRLIEKFIENLLASDGDFWIGLKRLEEKQSNNTACQDLYAWTDGSTSQFRNWYVDEPSCGSEVCVVMYHQPSAPPGIGGSYMFQWNDDRCNMKNNFICKYHDDKPSTTPSIWPGGEATEPATPLLPEETQKEDTKETFKERREAALNLAYILIPSIPLFLLLVVTSAVCWVWICRRKREQTDPSTKEQHTIWPTPRQENSPNLDVYNVIRKQSEADLAEPRPDLKNISFRVCSGEAMPDDMSCDYENIAVNPSESGFVTLASMESGFVTNDIYEFSPDRMGRSKESGWVENEIYY
# Tests used:
# Assay in all cases: glycan array binding signal (z-score within array); higher = stronger binding
# Conditions in all cases: glycan notation: IUPAC condensed, linker removed
# [1] = target: Gal(a1-4)Gal(b1-4)GlcNAc(b1-2)Man(a1-3)[Gal(a1-4)Gal(b1-4)GlcNAc(b1-2)Man(a1-6)]Man(b1-4)GlcNAc(b1-4)GlcNAc
# Procedure, shortened: (§1)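 Glycan array binding is given as a within-array Z-score, which can be read as non-binding when negative. The arrays, 3228 of them, came from the Consortium for Functional Glycomics database and were retained only where the protein sequence was available. Z-scores were averaged across arrays of the same protein sequence at different concentrations or buffers and across linkers.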
# [2] = target: Gal(a1-4)Gal(b1-4)GlcNAc(b1-3)Gal(b1-4)Glc
# Procedure, shortened: as §1
# [3] = target: Gal(a1-4)GlcNAc
# Procedure, shortened: as §1
# [4] = target: Gal(a1-6)Glc
# Procedure, shortened: as §1
# [5] = target: Gal(b1-2)Gal
# Procedure, shortened: as §1
# [6] = target: Gal(b1-3)Gal
# Procedure, shortened: as §1
# [7] = target: Gal(b1-3)Gal(b1-4)GlcNAc
# Procedure, shortened: as §1
# [8] = target: Gal(b1-3)Gal(b1-4)GlcNAc(b1-2)Man(a1-3)[Gal(b1-3)Gal(b1-4)GlcNAc(b1-2)Man(a1-6)]Man(b1-4)GlcNAc(b1-4)GlcNAc
# Procedure, shortened: as §1
# [9] = target: Gal(b1-3)GalNAc
# Procedure, shortened: as §1
# [10] = target: Gal(b1-3)GalNAc(a1-3)[Fuc(a1-2)]Gal(b1-4)Glc
# Procedure, shortened: as §1
# [11] = target: Gal(b1-3)GalNAc(a1-3)[Fuc(a1-2)]Gal(b1-4)GlcNAc
# Procedure, shortened: as §1
# [12] = target: Gal(b1-3)GalNAc(b1-3)Gal(a1-4)Gal(b1-4)Glc
# Procedure, shortened: as §1
# [13] = target: Gal(b1-3)GalNAc(b1-4)Gal(b1-4)Glc
# Procedure, shortened: as §1
# [14] = target: Gal(b1-3)GalNAc(b1-4)[Neu5Ac(a2-3)]Gal(b1-4)Glc
# Procedure, shortened: as §1
# [15] = target: Gal(b1-3)GlcNAc
# Procedure, shortened: as §1
# [16] = target: Gal(b1-3)GlcNAc(a1-6)Gal(b1-4)GlcNAc
# Procedure, shortened: as §1
# [17] = target: Gal(b1-3)GlcNAc(b1-2)Man(a1-3)[Gal(b1-3)GlcNAc(b1-2)Man(a1-6)]Man(b1-4)GlcNAc(b1-4)GlcNAc
# Procedure, shortened: as §1
# [18] = target: Gal(b1-3)GlcNAc(b1-2)Man(a1-3)[Gal(b1-3)GlcNAc(b1-2)Man(a1-6)]Man(b1-4)GlcNAc(b1-4)[Fuc(a1-6)]GlcNAc
# Procedure, shortened: as §1
# [19] = target: Gal(b1-3)GlcNAc(b1-2)[Gal(b1-3)GlcNAc(b1-6)]Man(a1-6)[Gal(b1-3)GlcNAc(b1-2)Man(a1-3)]Man(b1-4)GlcNAc(b1-4)GlcNAc
# Procedure, shortened: as §1
# [20] = target: Gal(b1-3)GlcNAc(b1-3)Gal(b1-3)GlcNAc
# Procedure, shortened: as §1
# [21] = target: Gal(b1-3)GlcNAc(b1-3)Gal(b1-4)Glc
# Procedure, shortened: as §1
# [22] = target: Gal(b1-3)GlcNAc(b1-3)Gal(b1-4)GlcNAc
# Procedure, shortened: as §1
# [23] = target: Gal(b1-3)GlcNAc(b1-3)Gal(b1-4)GlcNAc(b1-6)[Gal(b1-3)GlcNAc(b1-3)]Gal(b1-4)Glc
# Procedure, shortened: as §1
# [24] = target: Gal(b1-3)GlcNAc(b1-3)Gal(b1-4)[Fuc(a1-3)]GlcNAc(b1-6)[Gal(b1-3)GlcNAc(b1-3)]Gal(b1-4)Glc
# Procedure, shortened: as §1
# [25] = target: Gal(b1-3)GlcNAc(b1-3)GalNAc
# Procedure, shortened: as §1
# [26] = target: Gal(b1-3)GlcNAc(b1-6)Gal(b1-4)GlcNAc
# Procedure, shortened: as §1
# [27] = target: Gal(b1-3)[Fuc(a1-4)]GlcNAc
# Procedure, shortened: as §1
# [28] = target: Gal(b1-3)[Fuc(a1-4)]GlcNAc(b1-2)Man(a1-3)[Gal(b1-3)[Fuc(a1-4)]GlcNAc(b1-2)Man(a1-6)]Man(b1-4)GlcNAc(b1-4)GlcNAc
# Procedure, shortened: as §1
# [29] = target: Gal(b1-3)[Fuc(a1-4)]GlcNAc(b1-2)Man(a1-3)[Gal(b1-3)[Fuc(a1-4)]GlcNAc(b1-2)Man(a1-6)]Man(b1-4)GlcNAc(b1-4)[Fuc(a1-6)]GlcNAc
# Procedure, shortened: as §1
# [30] = target: Gal(b1-3)[Fuc(a1-4)]GlcNAc(b1-3)Gal(b1-3)[Fuc(a1-4)]GlcNAc
# Procedure, shortened: as §1
# [31] = target: Gal(b1-3)[Fuc(a1-4)]GlcNAc(b1-3)Gal(b1-4)GlcNAc
# Procedure, shortened: as §1
# [32] = target: Gal(b1-3)[Fuc(a1-4)]GlcNAc(b1-3)Gal(b1-4)[Fuc(a1-3)]GlcNAc
# Procedure, shortened: as §1
# [33] = target: Gal(b1-3)[GlcNAc(b1-6)]GalNAc
# Procedure, shortened: as §1
# [34] = target: Gal(b1-3)[Neu5Ac(a2-6)]GalNAc
# Procedure, shortened: as §1
# [35] = target: Gal(b1-3)[Neu5Ac(a2-6)]GlcNAc(b1-6)Gal(b1-4)Glc
# Procedure, shortened: as §1
# [36] = target: Gal(b1-3)[Neu5Ac(b2-6)]GalNAc
# Procedure, shortened: as §1
# [37] = target: Gal(b1-4)Gal
# Procedure, shortened: as §1
binder,measurement,setting,value
B1,glycan array binding signal (z-score),[1],-0.645
same,glycan array binding signal (z-score),[2],3.88
same,glycan array binding signal (z-score),[3],0.409
same,glycan array binding signal (z-score),[4],-0.455
same,glycan array binding signal (z-score),[5],-0.724
same,glycan array binding signal (z-score),[6],-1.05
same,glycan array binding signal (z-score),[7],-0.572
same,glycan array binding signal (z-score),[8],0.348
same,glycan array binding signal (z-score),[9],-0.15
same,glycan array binding signal (z-score),[10],-0.796
same,glycan array binding signal (z-score),[11],0.846
same,glycan array binding signal (z-score),[12],-0.972
same,glycan array binding signal (z-score),[13],-0.562
same,glycan array binding signal (z-score),[14],-0.593
same,glycan array binding signal (z-score),[15],-0.083
same,glycan array binding signal (z-score),[16],-1.02
same,glycan array binding signal (z-score),[17],0.423
same,glycan array binding signal (z-score),[18],2.69
same,glycan array binding signal (z-score),[19],-0.793
same,glycan array binding signal (z-score),[20],-1.2
same,glycan array binding signal (z-score),[21],-0.339
same,glycan array binding signal (z-score),[22],-0.708
same,glycan array binding signal (z-score),[23],-0.423
same,glycan array binding signal (z-score),[24],-0.086
same,glycan array binding signal (z-score),[25],0.538
same,glycan array binding signal (z-score),[26],-0.744
same,glycan array binding signal (z-score),[27],0.542
same,glycan array binding signal (z-score),[28],-0.909
same,glycan array binding signal (z-score),[29],7.71
same,glycan array binding signal (z-score),[30],-0.784
same,glycan array binding signal (z-score),[31],0.165
same,glycan array binding signal (z-score),[32],0.595
same,glycan array binding signal (z-score),[33],-0.792
same,glycan array binding signal (z-score),[34],-0.348
same,glycan array binding signal (z-score),[35],1.16
same,glycan array binding signal (z-score),[36],0.228
same,glycan array binding signal (z-score),[37],-0.668

# A portion from further up:
binder,measurement,setting,value
B1,glycan array binding signal (z-score),[11],0.846
same,glycan array binding signal (z-score),[12],-0.972
same,glycan array binding signal (z-score),[13],-0.562
same,glycan array binding signal (z-score),[14],-0.593
same,glycan array binding signal (z-score),[15],-0.083
same,glycan array binding signal (z-score),[16],-1.02
same,glycan array binding signal (z-score),[17],0.423
same,glycan array binding signal (z-score),[18],2.69
